Screening data, single-dose tests

Amino acid sequences for entries named in this document (tags omitted). Residues count along the entry.
UniProt I6X8D2, whole entry: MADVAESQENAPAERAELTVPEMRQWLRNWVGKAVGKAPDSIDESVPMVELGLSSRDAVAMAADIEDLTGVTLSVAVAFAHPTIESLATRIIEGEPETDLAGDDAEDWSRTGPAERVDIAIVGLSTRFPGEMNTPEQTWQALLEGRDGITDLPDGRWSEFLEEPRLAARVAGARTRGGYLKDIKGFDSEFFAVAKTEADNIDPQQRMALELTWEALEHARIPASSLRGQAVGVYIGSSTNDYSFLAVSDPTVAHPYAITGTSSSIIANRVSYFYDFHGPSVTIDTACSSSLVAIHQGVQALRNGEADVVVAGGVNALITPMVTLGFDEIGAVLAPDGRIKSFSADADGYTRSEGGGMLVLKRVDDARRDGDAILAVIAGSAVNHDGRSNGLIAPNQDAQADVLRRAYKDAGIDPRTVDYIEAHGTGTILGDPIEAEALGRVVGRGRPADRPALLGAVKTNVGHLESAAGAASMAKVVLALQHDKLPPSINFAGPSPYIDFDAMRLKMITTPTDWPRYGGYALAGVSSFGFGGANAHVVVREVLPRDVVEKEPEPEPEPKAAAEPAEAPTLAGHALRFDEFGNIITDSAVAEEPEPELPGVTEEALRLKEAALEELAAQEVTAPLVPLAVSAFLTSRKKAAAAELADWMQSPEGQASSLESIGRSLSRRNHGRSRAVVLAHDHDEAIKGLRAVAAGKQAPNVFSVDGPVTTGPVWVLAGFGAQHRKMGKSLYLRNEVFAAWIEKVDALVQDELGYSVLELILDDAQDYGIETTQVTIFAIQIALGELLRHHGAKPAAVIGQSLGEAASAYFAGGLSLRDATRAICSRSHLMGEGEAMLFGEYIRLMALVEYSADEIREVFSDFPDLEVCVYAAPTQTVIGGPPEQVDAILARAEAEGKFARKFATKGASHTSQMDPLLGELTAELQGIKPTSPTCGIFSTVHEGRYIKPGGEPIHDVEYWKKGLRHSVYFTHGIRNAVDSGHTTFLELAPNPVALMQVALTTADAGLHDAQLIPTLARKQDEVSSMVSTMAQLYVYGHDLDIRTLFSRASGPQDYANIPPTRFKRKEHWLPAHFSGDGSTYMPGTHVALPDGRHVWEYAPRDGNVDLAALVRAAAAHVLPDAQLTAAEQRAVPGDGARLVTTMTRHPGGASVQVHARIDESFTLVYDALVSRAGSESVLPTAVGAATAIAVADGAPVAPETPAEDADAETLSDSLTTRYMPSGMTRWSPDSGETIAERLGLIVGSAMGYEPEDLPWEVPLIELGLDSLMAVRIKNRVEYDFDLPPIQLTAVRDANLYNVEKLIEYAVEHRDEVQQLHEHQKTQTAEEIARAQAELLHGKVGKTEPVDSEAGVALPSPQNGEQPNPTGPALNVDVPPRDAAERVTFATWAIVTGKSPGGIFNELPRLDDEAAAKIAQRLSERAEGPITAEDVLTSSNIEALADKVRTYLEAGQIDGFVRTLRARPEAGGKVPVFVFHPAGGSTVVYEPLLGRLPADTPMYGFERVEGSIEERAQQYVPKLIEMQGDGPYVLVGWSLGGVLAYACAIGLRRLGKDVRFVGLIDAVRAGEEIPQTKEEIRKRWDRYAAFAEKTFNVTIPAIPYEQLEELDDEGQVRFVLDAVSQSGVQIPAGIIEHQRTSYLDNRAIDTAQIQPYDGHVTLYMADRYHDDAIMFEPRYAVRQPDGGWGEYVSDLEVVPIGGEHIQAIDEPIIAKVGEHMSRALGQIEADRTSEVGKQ
UniProt Q8IDJ8, 1-583: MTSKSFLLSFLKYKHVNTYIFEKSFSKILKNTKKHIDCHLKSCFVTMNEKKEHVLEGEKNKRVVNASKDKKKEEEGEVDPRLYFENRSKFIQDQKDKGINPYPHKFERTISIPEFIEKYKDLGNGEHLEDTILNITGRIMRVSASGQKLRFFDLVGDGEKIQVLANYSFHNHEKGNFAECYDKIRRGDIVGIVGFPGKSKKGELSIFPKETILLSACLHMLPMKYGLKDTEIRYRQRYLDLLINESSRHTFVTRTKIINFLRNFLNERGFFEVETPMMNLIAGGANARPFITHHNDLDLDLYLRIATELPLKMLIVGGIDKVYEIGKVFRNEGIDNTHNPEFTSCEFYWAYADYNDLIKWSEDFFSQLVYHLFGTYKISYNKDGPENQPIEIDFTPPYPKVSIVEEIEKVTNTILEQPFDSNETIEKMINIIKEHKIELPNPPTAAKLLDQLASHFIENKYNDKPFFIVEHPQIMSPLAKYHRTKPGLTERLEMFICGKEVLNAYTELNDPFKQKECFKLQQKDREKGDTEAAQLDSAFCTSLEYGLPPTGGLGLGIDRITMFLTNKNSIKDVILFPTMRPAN
UniProt A4I591, 1-473: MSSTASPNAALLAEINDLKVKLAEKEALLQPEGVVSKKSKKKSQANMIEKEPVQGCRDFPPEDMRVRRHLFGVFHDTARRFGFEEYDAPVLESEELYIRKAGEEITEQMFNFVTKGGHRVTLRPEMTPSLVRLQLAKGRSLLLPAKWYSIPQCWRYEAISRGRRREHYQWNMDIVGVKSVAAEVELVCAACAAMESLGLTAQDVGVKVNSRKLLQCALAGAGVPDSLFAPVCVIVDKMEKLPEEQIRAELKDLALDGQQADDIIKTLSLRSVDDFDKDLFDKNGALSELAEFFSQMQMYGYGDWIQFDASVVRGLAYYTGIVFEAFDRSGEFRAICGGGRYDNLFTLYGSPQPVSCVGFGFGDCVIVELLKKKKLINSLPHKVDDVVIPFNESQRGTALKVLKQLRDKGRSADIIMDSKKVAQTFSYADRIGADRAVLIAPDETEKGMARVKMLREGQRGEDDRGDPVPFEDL
UniProt P9WFT3, whole entry: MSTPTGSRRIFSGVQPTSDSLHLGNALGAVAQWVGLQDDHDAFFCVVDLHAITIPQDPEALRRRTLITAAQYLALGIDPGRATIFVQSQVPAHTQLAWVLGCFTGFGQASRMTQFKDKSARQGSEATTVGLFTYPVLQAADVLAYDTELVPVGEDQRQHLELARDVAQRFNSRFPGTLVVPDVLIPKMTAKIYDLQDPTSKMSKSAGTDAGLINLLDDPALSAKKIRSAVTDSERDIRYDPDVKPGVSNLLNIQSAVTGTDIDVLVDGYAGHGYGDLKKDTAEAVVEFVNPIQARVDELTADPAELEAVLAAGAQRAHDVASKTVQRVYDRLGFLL

Results are given as percent effect. The record does not define 0% and 100%; most values in the screen are far below 50% and negative numbers occur (in some assays of this library far below -100). Compounds were drawn at random from those tested, without regard to their results.

A: 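Enzyme assay of the thioesterase domain of polyketide synthase 13; the read-out is not stated. Target: Polyketide synthase Pks13, Mycobacterium tuberculosis (UniProt I6X8D2). Compounds at 30 µM. Higher reads as stronger inhibition (inferred from which compounds were picked for retests). Of about 67,000 compounds tested this way, about 300 (0.46%) reached 50% or more in at least one test.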
B: 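Lysine-tRNA ligase, Plasmodium falciparum 3D7 (UniProt Q8IDJ8). Enzyme assay of the cytosolic lysyl-tRNA synthetase in 384-well plates, read by luminescence. Tested at 30 µM. Direction is inferred from only a few compounds that gave an IC50; most scored high, so higher reads as stronger inhibition. About 69,000 compounds were tested under these conditions; 0.071% (about 49) showed 50% or more at least once.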
C: 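Enzyme assay of histidyl-tRNA synthetase; the read-out is not stated. Target: Histidine-tRNA ligase, Leishmania infantum (UniProt A4I591). Compounds at 30 µM. Direction is inferred from retests: higher values go with stronger inhibition. The assay is labelled LdHisRS but filed under L. infantum. Of about 69,000 compounds tested this way, about 410 (0.6%) reached 50% or more in at least one test.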
D: 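Enzyme assay of tryptophanyl-tRNA synthetase; the read-out is not stated. Target: Tryptophan-tRNA ligase, Mycobacterium tuberculosis (UniProt P9WFT3). Tested at 10 µM. Higher most likely means stronger inhibition; the record gives no direction and few retests gave an IC50. Size under these conditions: about 65,000 compounds, about 64 of them at 50% or above in at least one test.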

Compound: CN1CCN(C2COC3(CCN(CC4CC4)CC3)C2)CC1 (centres unmarked)
A: -30.16
B: 2.676
C: 11.97
D: -1.841

Compound: Cc1nc(CN2C[C@@H]3CN(C(=O)CC(F)(F)F)C[C@@H]3C2=O)cs1
A: -3.25
B: -1.997
C: 5.882
D: 1.07

Compound: Cc1csc(N2CCN(Cc3ccccn3)CC2)n1
A: -7.807
B: 2.13
C: 27.06
D: 0.757

Compound: O=C(NCc1cc[nH]n1)N(CCCO)C1CCc2ccccc21 (centres unmarked)
A: -7.808
B: 3.768
C: 12.16
D: 1.774

Compound: CC(=O)N1Cc2ccccc2CC1C(=O)Nc1ccc(N(C)C)cn1 (centres unmarked)
A: -9.959
B: 1.162
C: 35
D: 5.433

Compound: O=C1CC[C@@H](CN(Cc2ccncc2)Cc2nc(CC3CC3)no2)N1
A: -5.93
B: 7.042
C: 1.639
D: -0.3221

Compound: CC(C)Cc1cc(NC(=O)c2ccccn2)n(C)n1
A: -1.134
B: 0.1684
C: 10.43
D: 4.479

Compound: Cn1nc2c(cc1=O)CN(CCc1nc3ccccc3c(=O)[nH]1)CC2
A: 2.529
B: 6.178
C: 53.85
D: 5.061

Compound: CCc1nc(CN2CCCN(C(=O)c3cn[nH]c3CC)CC2)cs1
A: -12.05
B: -0.09378
C: 6.383
D: -0.3712

Compound: COc1ccc(C(=O)N2CCOCC2c2ccc(C)o2)cc1 (centres unmarked)
A: 4.091
B: 4.369
C: 11.61
D: 0.3621

Compound: CC(C)c1cc(N2CCC3(CC2)CN(C)CCN3C)ncn1
A: -23.78
B: 5.758
C: 7.752
D: -0.4105

Compound: O=C(c1ccnnc1)N1C[C@@H](OCC2CCCC2)[C@H]2OCCC[C@H]21
A: -6.333
B: 6.081
C: 19.23
D: -3.377

Compound: CCc1nc2n(n1)CC(NCc1nc3ccccc3nc1C)CC2 (centres unmarked)
A: -16.15
B: 4.573
C: 17.65
D: 3.701

Compound: CCN(CC)CCNc1ncc(-c2cc(C)no2)c(-c2ccoc2C)n1
A: -34.39
B: 4.271
C: 16.67
D: -2.926

Compound: Cn1ccc2ccc(C(=O)N3CCN(C(=O)OC(C)(C)C)CC3)cc21
A: -24.57
B: 5.843
C: 23.68
D: 2.451

Compound: O=C(C1CC1)N1C[C@@H](F)[C@@H](OCc2nc3ccccc3[nH]2)C1
A: -20.31
B: -0.02522
C: 25.68
D: 1.442

Compound: Cc1ccc(-c2ccnc(NC(C)c3ncc[nH]3)n2)c(C)n1 (centres unmarked)
A: -30.14
B: -1.902
C: 0
D: -3.311

Compound: Cc1nc(C(=O)N2CCN(C(=O)N(C)C)[C@@H]3CS(=O)(=O)C[C@@H]32)cs1
A: -32.2
B: 4.853
C: 8
D: -4.739

Compound: Cc1ccc(-c2nc(CN3CCCC3Cn3cncn3)cs2)o1 (centres unmarked)
A: 7.769
B: 0.4473
C: 28.81
D: -7.221

Compound: CN1C[C@@H](C(=O)N2CCCOCC2)[C@@]2(CCc3ccccc3C(=O)N2)C1
A: 1.884
B: -0.1332
C: 8.571
D: -0.2114

Compound: CCCOCC1CCN(C(=O)Cn2ncc(N3CCCC3)cc2=O)C1 (centres unmarked)
A: -26.52
B: 1.932
C: -3.797
D: -0.7766

Compound: Cc1[nH]nc(-c2ccc(F)cc2)c1CC(=O)NCC1CCOCC1
A: -14.53
B: 2.055
C: 14.29
D: 0.4619

Compound: Cc1cccc(CN2CCC(C3Nc4ccccc4S(=O)(=O)N3)CC2)n1 (centres unmarked)
A: 17.09
B: 1.24
C: 8

Compound: O=C(NC1CCC1)C1=NOC2(CCN(Cc3ccc(F)cc3)C2)C1 (centres unmarked)
A: -10.45
B: 0.5481
C: -3.636
D: -3.487

For reference, 2 entries once more:

{"compound": "O=C(NC1CCC1)C1=NOC2(CCN(Cc3ccc(F)cc3)C2)C1", "stereo": "centres unmarked", "A": -10.45, "B": 0.5481, "C": -3.636, "D": -3.487}
{"compound": "Cc1nc(CN2C[C@@H]3CN(C(=O)CC(F)(F)F)C[C@@H]3C2=O)cs1", "A": -3.25, "B": -1.997, "C": 5.882, "D": 1.07}

Measurements from “University of Dundee, Small-Polar-MMV Screening Library” (2021), ChEMBL document CHEMBL3988442.